The record followed here is article PMC12638486.

For at least one entry, the source does not settle the construct or the ends of the probe. Negatives hold for the conditions tested.

This data set deals with CREB1 (recombinant). Kind of data set: EMSA. The following applies: Beyotime EMSA kit, non-denaturing gel, chemiluminescent biotin detection, pH and temperature not stated, commercial protein, label: 5' biotin on forward strand. (Mobility shift assays separate free from complexed probe on a gel.)

Regarding “AAGCCCTTCGACGTAAACGCATAT (double strand) [Mut probe (rs1544105 G)]”, the binding result is “binds”.
“AAGCCCTTCGATGTAAACGCATAT (double strand) [WT probe (rs1544105 A)]”: the binding result (binding stated as negligible, weaker than G probe) is “no binding”.
